Results from PubChem BioAssay AID493014 (National Center for Advancing Translational Sciences (NCATS), 2011).
Values joined by “and” are separate entries in the source; they are usually repeats but may differ in a detail not shown here. Equal entries are not always repeated. The list shows a part of the results. The main result of the screen is listed elsewhere. These columns were measured beside it and carry no call. The list favours compounds with an active or inconclusive main result. Potencies come from curve fits of mixed quality, noted in brackets.

Assay: qHTS Assay to Find Inhibitors of Chronic Active B-Cell Receptor Signaling
Settings: ABC-DLBCL IkBa-CBG/CBR reporter, luminescence ratio (green luciferase fused to IkBa over red control in TMD8 lymphoma cells), 4 h
Method in brief: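 TMD8 human ABC-DLBCL cells with doxycycline-inducible IκBα–green luciferase fusion and unfused red luciferase, in 0.5% FBS medium; compounds up to 46 uM, 4 h at 37C. Green/red luminescence ratio, filter-overlap corrected, fitted to concentration-response curves.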

[1] = measured here: CBR red luminescence, cell number
[2] = measured here: IkBa-CBG green luminescence

Row | Structure (SMILES) | AC50 [1] | AC50 [2]
1 | C/C(=N\N1CCN(c2ccccc2)CC1)c1ccncc1 | 35.5 µM [rising, single point] | –
2 | COc1cc(/C=C(/C#N)c2nc3ccccc3[nH]2)ccc1OC(=O)c1ccco1 | 7.31 µM [falling, partial curve] | –
3 | COc1cc(OC)c(C(=O)OCC(=O)NCC2CCCCC2)cc1OC | 3.26 µM [rising, full curve] | –
4 | CS(=O)(=O)NNC(=O)c1cc2cc3ccccc3nc2s1 | 6.31 µM [falling, partial curve, poor fit] | –
5 | COc1ccccc1-c1ccc(SCc2cccc(F)c2)nn1 | 22.4 µM [falling, partial curve] | –
6 | Cc1cc(=O)[nH]c(N/N=C/c2sccc2C)n1 | 5.17 µM [falling, partial curve] | –
7 | O=C(O)c1cccc2c1C(=O)c1ccc(-c3ccc(F)cc3OCc3ccccc3)cc1S2(=O)=O | 29.1 µM [falling, single point] | –
8 | COc1ccc(NC(=O)Cc2csc(NC(=O)Nc3ccccc3OC)n2)c(OC)c1 | 7.31 µM [falling, partial curve, poor fit] | 9.2 µM [rising, partial curve, poor fit]
9 | O=C(O)c1cccc(CSc2nnc(-c3cccnc3)o2)c1 | 14.1 µM [falling, partial curve, poor fit] | –
10 | Nn1cnnc1N/N=C/c1ccc(Cl)c([N+](=O)[O-])c1 | 35.5 µM [falling, single point] | –
11 | O=C(CCNc1ccccc1)c1ccc2c(c1)OCO2 | 31.6 µM [falling, single point] | –
12 | COc1cc(/C=C2\SC(c3ccc(C)cc3)=NC2=O)cc(OC)c1OC | 29.1 µM [falling, single point] | –
13 | COc1cc(N2C(=O)CSC2=S)cc(OC)c1OC | 35.5 µM [falling, single point] | –
14 | Cc1nc2c(c(=O)n1Cc1ccccc1Cl)c1nc3ccccc3nc1n2Cc1ccco1 | 4.11 µM [falling, partial curve, poor fit] | –
15 | CC(C)c1ccc(NC(=O)c2cc(S(=O)(=O)NCC3COc4ccccc4O3)ccc2F)cc1 (stereo unspecified) | 18.4 µM [falling, single point] | –
16 | CC(=O)c1cccc(NC(=O)c2ccncc2)c1 | 35.5 µM [rising, single point] | –
17 | OC(CCN1CCCC1)(c1ccccc1)C1CCCCC1 (stereo unspecified) | 8.91 µM [falling, partial curve, poor fit] | –
18 | CCOc1ccccc1/C=C/c1onc(C)c1S(=O)(=O)N1CCC(C(=O)N(CC)CC)CC1 | 1 µM [rising, full curve, poor fit] and 15.8 µM [falling, single point] | –
19 | Nc1nnc(-c2cn(-c3ccccc3)nc2-c2ccc(Cl)cc2)o1 | 22.4 µM [rising, single point] | –
20 | O=c1cc(-c2ccc(Cl)cc2)[nH]c2ccccc12 | 8.91 µM [falling, partial curve, poor fit] | –
21 | O=C(O)c1ccc(Cn2cnc3sc4c(c3c2=O)CCCC4)cc1 | 8.91 µM [falling, partial curve, poor fit] | –

Row | Structure (SMILES) | AC50 [1] | AC50 [2]
22 | COC(=O)c1ccc(-c2noc(CN(C)CCC3CCCCO3)n2)cc1 (stereo unspecified) | 2.51 µM [falling, partial curve, poor fit] | –
23 | CC(C)[C@H](NC(=O)c1ccccc1)C(=O)NCCc1ccccc1 | 7.08 µM [rising, full curve, poor fit] | –
24 | COc1ccc(CN(C)S(=O)(=O)c2nnc(NC(=O)c3cccc(F)c3)s2)cc1OC | 7.08 µM [rising, partial curve, poor fit] | –
25 | COc1ccc2c(c1OC)C(=O)OC2CC(=O)c1ccc(O)cc1 (stereo unspecified) | 11.2 µM [falling, partial curve] | –
26 | COc1cc2c(cc1NC(=O)CSc1nnc(COc3ccc(Cl)cc3)n1C)oc1ccccc12 | 11.2 µM [falling, partial curve] | 15.8 µM [rising, partial curve, poor fit]
27 | CS(=O)(=O)N(Cc1ccccc1)c1ccccc1C(=O)Nc1ccccc1C(=O)NCc1ccco1 | 0.517 µM [falling, partial curve, poor fit] | –
28 | Cc1ccc(-c2nc3ccccc3nc2-c2ccccc2)cc1 | 0.708 µM [rising, full curve, poor fit] | –
29 | CCC(Sc1nc2n[nH]c(C)c2c(=N)n1-c1cccc(Cl)c1)C(=O)NCCOC (stereo unspecified) | 35.5 µM [falling, single point] | –
30 | CN1CCN(c2ccccc2NC(=O)c2cccc(OCc3ccccc3)c2)CC1 | 1.84 µM [falling, single point] | –
31 | CCc1ccc(/C(C)=N/NC(=O)c2c[nH]c3ccccc23)s1 | 7.94 µM [falling, partial curve] | –
32 | COc1cccc(C2C(C(C)=O)=C(O)C(=O)N2CCNCCO)c1 (stereo unspecified) | 35.5 µM [rising, single point] | –
33 | CC(C)(C)c1ccc(NC(=O)CSc2n[nH]c(=O)n2-c2cccnc2)cc1 | 12.6 µM [falling, partial curve, poor fit] | –
34 | Cc1cccc(NC(=O)CCN2C(=O)C3C4C=CC(C4)C3C2=O)c1 (stereo unspecified) | 8.2 µM [rising, partial curve, poor fit] | –
35 | Clc1cccc(-c2nc(NCCCN3CCOCC3)c3ccccc3n2)c1 | 20 µM [falling, partial curve, poor fit] | 35.5 µM [rising, partial curve, poor fit]
36 | COc1ccc(-c2cnnn2-c2ccc(NC(=O)c3c(F)cccc3F)cc2)cc1 | 6.31 µM [falling, single point] | –
37 | C=C(C)C(=O)N1CC2(CC(c3cccc(NC(=O)COc4ccc(Cl)cc4)c3)=NO2)C[C@@H]1C(N)=O (stereo partly specified) | 12.6 µM [falling, partial curve, poor fit] | –
38 | Cc1cc(=O)n(CC=C(Cl)Cl)c2ccccc12 | 1.12 µM [rising, full curve, poor fit] | –
39 | O=C(CNC(=O)c1ccc2c(c1)OCO2)Nc1ncccc1O | 18.4 µM [falling, partial curve] | –
40 | CC(=O)c1ccc(Oc2cc(C)nc(-n3nc(C)cc3C)n2)cc1 | 16.4 µM [rising, single point] | 20.6 µM [falling, partial curve]
41 | Cc1nc2c(C(=O)NCc3ccccc3)c[nH]n2c(=O)c1Cl | 35.5 µM [rising, single point] | –
42 | CCN(C[C@H]1N[C@@](C)(C(=O)OC)[C@H]2C(=O)N(Cc3ccccc3)C(=O)[C@@H]12)C(=O)COC | 13 µM [rising, partial curve, poor fit] | –

Record cards, from the list above. Values in the order: AC50 [1]	AC50 [2]
`CC(C)[C@H](NC(=O)c1ccccc1)C(=O)NCCc1ccccc1` as listed: 7.08 µM [rising, full curve, poor fit]	–
`CCN(C[C@H]1N[C@@](C)(C(=O)OC)[C@H]2C(=O)N(Cc3ccccc3)C(=O)[C@@H]12)C(=O)COC` as listed: 13 µM [rising, partial curve, poor fit]	–
`CC(=O)c1ccc(Oc2cc(C)nc(-n3nc(C)cc3C)n2)cc1` as listed: 16.4 µM [rising, single point]	20.6 µM [falling, partial curve]
`O=C(O)c1ccc(Cn2cnc3sc4c(c3c2=O)CCCC4)cc1` as listed: 8.91 µM [falling, partial curve, poor fit]	–

Next records.

Row | Structure (SMILES) | AC50 [1] | AC50 [2]
43 | CSc1ccc(CNCCCSc2ncccn2)cc1 | 17.8 µM [falling, single point] | –
44 | CCN1CCN(C(=O)c2ccc3c(Cl)c4c(nc3c2)CCCC4)CC1 | 11.2 µM [falling, partial curve, poor fit] | –
45 | O=C(CN1CCC(C(=O)c2ccc(F)cc2)CC1)Nc1ccc(F)cc1 | 16.4 µM [falling, partial curve, poor fit] | –
46 | NS(=O)(=O)c1ccc(CNC(=O)CSc2ccccc2)cc1 | 35.5 µM [rising, single point] | –
47 | Cc1c(Cl)cccc1NC(=O)Nc1ccc(C(N)=O)cc1 | 2.51 µM [falling, partial curve, poor fit] | –
48 | COc1ccccc1NC(=S)NCCc1ccccc1 | 3.55 µM [rising, single point] | –
49 | O=S(=O)(c1ccc(S(=O)(=O)N2CCN(Cc3ccccc3)CC2)cc1)N1CCOCC1 | 1 µM [rising, full curve, poor fit] | –
50 | Cc1ccc(Nc2nc(-c3c(C)nc4ncccn34)cs2)cc1 | 1.26 µM [rising, partial curve, poor fit] | 2.51 µM [falling, partial curve]
51 | COc1ccc(N(CC(=O)NCCc2ccc(OC)c(OC)c2)S(=O)(=O)c2ccc(OC)c(OC)c2)cc1 | 10 µM [rising, partial curve] | –
52 | COc1ccc(CC(=O)N2CCc3ccccc3C2)cc1 | 2.82 µM [rising, full curve, poor fit] | –
53 | COc1ccc(F)cc1S(=O)(=O)Nc1cc2c3c(c1)CCN3C(=O)CC2 | 25.9 µM [rising, partial curve, poor fit] | –
54 | O=C1CC(SCCc2nc3ccccc3[nH]2)C(=O)N1c1ccc(Cl)cc1 (stereo unspecified) | 14.1 µM [falling, partial curve, poor fit] | –
55 | Cc1nc2ccccc2c2oc(C(=O)NCCN3CCN(C)CC3)cc12 | 0.282 µM [falling, full curve, poor fit] | –
56 | COc1ccc(OC)c(NC(=O)CSc2ccnc(=O)[nH]2)c1 | 3.98 µM [falling, full curve] | –
57 | Cc1ccc(C2CC(c3ccc(NS(C)(=O)=O)cc3)=NN2C(=O)c2ccco2)cc1 (stereo unspecified) | 29.1 µM [falling, single point] | –
58 | COc1ccc(NC(=O)c2c(NCc3ccc(C)o3)sc3c2CCC(C)C3)c(OC)c1 (stereo unspecified) | 35.5 µM [falling, single point] | –
59 | COc1cccc(Oc2ccc(C(F)(F)F)cc2NC(=O)c2cccc(F)c2)c1 | 1.84 µM [rising, partial curve] | –
60 | Brc1ccc(Nc2ncnc3[nH]ncc23)cc1 | 5.62 µM [rising, single point] | –
61 | COCCCn1c(SCc2cccc(C(F)(F)F)c2)nc2cc(OC)c(OC)cc2c1=N | 7.94 µM [falling, partial curve, poor fit] | –
